This is a selection; strong and weak results do not stand in their true shares. The data scatter; read single values as rough.
compound: COC(=O)/C=C/c1ccccc1 [methyl cinnamate]; assay: log2 ratio of iodoacetamide-alkyne labeling of the cysteine site, DMSO over compound (competition); higher = stronger covalent engagement of the cysteine by the compound, active = 1 or more; details: 500 µM; treatment time 1 h; system: HEK293T cell lysate
How it was run: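 For each cysteine, the log2 competition ratio is mean control-channel reporter intensity over mean compound-channel reporter intensity. HEK293T lysate (2 mg/mL) was exposed to vehicle or electrophile (500 µM, 1 h, ambient temperature), labelled with iodoacetamide alkyne (1 h), clicked to sCIP-TMT reagents, digested overnight with trypsin at 37 °C, streptavidin-enriched and analysed by Orbitrap Eclipse LC-MS/MS with FAIMS and FragPipe. Cysteines quantified in only one of three replicates, each with duplicate channels, were excluded.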

Sequences of proteins named here, by UniProt entry; tags and fusion partners are left off. A change or cut given only in a name is not applied to a line headed by its entry.
UniProt Q9P107: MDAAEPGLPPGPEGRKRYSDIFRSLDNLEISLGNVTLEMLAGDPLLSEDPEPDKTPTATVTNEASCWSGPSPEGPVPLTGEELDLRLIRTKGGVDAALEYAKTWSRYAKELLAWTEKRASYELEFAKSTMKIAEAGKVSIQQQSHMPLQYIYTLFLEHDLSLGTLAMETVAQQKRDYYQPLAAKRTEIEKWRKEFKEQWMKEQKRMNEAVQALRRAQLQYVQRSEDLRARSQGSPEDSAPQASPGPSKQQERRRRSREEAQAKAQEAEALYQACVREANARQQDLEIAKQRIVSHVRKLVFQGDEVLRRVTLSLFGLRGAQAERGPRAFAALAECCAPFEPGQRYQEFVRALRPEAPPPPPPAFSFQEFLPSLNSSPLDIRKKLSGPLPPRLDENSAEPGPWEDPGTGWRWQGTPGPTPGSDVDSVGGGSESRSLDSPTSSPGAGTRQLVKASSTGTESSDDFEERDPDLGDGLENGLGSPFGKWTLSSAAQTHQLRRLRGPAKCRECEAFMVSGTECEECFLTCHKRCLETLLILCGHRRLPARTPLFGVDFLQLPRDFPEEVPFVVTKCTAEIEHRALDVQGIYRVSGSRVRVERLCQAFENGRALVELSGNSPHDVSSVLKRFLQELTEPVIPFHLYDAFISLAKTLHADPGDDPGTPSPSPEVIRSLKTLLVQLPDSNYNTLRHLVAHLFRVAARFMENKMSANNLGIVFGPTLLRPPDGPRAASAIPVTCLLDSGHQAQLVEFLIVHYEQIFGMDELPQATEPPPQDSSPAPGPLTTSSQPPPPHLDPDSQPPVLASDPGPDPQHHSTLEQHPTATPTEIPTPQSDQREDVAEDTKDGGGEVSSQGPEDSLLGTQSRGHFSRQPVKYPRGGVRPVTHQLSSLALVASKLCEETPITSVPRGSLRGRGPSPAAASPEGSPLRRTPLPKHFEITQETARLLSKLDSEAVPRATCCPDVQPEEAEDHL
UniProt Q9UBL3, whole entry, looked up: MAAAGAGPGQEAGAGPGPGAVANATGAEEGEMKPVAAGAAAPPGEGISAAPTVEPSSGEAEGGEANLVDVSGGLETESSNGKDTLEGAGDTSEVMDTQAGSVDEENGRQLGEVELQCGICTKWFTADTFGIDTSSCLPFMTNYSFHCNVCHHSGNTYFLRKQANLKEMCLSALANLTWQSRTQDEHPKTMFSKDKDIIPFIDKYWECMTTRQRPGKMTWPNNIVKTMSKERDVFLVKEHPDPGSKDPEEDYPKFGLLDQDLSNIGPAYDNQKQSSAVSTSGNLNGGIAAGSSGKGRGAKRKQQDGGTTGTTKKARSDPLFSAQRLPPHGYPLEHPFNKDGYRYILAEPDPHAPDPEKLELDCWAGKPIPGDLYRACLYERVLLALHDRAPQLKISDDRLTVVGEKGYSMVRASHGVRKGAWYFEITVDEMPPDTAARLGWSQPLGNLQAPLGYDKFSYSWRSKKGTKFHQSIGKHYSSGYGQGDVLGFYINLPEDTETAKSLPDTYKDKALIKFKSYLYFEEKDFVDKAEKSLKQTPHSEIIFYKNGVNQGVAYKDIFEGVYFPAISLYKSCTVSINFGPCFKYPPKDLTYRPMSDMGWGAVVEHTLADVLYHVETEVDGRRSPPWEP
UniProt Q9UGI8: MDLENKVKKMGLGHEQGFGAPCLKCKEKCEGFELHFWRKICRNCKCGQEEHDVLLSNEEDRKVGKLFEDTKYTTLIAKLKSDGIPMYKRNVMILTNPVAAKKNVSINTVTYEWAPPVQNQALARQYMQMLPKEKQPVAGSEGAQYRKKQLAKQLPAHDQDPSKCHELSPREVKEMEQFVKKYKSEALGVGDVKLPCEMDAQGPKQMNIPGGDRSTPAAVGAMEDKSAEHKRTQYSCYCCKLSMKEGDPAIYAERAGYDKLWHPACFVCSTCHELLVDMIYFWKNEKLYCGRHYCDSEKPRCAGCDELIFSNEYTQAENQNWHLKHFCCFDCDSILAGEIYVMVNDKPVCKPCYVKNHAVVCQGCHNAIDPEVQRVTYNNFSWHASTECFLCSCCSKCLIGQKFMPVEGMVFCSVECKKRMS
UniProt Q9NUQ8: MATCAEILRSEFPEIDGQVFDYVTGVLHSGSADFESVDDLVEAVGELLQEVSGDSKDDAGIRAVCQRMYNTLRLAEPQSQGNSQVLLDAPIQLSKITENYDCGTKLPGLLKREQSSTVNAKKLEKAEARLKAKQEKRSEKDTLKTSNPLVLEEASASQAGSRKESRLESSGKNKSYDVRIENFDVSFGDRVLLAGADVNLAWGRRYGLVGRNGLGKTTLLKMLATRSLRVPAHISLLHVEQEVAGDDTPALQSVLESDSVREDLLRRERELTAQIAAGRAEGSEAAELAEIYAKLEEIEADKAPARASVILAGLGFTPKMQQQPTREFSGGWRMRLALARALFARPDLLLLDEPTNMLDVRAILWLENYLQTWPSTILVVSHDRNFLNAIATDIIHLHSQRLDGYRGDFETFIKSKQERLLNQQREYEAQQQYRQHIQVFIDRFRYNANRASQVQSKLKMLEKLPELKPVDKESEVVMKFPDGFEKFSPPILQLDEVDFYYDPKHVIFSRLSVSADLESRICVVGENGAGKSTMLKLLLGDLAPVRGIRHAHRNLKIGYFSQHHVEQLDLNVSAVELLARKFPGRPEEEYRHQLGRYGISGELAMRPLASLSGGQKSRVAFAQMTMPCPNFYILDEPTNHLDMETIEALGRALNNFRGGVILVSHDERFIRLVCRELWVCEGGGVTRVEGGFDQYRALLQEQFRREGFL
UniProt Q9P2I0: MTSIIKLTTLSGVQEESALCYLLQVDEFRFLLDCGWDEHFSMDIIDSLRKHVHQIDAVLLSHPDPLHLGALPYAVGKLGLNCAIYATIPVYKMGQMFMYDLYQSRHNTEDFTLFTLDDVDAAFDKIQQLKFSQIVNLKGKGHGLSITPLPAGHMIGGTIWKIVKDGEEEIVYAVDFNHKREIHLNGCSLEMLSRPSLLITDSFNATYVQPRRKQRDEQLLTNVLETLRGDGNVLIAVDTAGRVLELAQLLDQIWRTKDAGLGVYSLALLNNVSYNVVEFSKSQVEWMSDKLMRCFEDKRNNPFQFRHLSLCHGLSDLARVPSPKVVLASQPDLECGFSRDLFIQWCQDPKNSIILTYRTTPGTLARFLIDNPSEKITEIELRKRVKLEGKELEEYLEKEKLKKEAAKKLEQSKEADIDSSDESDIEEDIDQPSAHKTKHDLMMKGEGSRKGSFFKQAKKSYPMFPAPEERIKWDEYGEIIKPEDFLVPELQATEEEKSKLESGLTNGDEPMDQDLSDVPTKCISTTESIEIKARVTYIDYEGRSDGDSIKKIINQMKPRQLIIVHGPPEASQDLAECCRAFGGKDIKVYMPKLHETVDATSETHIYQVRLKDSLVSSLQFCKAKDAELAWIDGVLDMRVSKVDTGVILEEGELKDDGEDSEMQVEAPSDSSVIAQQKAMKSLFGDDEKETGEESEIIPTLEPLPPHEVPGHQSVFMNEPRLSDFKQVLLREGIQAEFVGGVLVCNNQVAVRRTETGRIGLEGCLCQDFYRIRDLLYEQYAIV
UniProt Q9NXH9: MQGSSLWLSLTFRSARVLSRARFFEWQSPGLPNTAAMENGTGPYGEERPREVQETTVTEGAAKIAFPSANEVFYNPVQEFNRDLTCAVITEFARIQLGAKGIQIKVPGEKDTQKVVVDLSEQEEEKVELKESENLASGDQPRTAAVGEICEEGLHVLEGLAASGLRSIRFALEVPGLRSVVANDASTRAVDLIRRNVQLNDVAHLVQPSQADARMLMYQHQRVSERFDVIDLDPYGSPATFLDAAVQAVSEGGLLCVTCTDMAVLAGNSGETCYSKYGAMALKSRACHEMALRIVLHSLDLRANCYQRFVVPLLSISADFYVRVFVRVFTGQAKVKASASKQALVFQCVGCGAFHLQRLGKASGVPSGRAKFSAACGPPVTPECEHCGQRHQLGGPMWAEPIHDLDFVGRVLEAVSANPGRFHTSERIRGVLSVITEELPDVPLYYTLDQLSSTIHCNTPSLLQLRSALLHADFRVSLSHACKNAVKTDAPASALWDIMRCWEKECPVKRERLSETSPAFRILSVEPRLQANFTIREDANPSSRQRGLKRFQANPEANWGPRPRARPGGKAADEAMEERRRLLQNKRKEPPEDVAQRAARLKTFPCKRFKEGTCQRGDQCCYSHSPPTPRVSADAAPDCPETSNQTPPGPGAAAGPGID
UniProt Q9NVI1: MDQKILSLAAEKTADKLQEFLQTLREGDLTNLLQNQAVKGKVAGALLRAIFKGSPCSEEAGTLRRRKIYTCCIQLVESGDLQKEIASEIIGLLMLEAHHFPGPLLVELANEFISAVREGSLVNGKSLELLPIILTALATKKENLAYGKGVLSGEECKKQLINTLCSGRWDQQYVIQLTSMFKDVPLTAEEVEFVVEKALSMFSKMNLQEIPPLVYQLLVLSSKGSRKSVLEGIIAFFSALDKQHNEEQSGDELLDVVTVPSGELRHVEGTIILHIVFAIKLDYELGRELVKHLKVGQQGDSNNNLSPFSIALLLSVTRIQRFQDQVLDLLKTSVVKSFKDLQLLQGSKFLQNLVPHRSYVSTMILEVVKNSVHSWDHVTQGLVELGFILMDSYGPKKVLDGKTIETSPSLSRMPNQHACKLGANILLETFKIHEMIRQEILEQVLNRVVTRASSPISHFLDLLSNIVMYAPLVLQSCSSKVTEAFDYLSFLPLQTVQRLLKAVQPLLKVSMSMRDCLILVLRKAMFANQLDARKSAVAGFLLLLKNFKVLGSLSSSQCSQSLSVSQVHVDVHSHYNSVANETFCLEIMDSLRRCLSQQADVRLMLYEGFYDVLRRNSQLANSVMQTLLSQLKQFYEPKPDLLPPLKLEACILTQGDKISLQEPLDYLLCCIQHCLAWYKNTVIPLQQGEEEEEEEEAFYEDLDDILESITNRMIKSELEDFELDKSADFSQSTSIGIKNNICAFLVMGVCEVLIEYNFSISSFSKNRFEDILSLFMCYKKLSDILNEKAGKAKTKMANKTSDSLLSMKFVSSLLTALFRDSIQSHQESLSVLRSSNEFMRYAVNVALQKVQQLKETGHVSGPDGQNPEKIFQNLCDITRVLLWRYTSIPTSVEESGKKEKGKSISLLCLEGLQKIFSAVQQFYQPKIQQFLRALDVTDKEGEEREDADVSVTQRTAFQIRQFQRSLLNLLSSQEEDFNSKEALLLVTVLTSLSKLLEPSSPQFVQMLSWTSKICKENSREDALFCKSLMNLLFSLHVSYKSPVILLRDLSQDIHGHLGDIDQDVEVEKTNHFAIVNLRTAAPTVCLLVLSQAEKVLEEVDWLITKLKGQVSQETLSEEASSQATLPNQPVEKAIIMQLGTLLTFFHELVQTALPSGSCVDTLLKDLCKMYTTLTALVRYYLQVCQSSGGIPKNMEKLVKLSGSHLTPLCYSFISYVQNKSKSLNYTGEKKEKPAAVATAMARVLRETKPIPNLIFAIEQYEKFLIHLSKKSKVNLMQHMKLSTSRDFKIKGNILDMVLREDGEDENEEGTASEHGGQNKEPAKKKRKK
UniProt Q9NZW5: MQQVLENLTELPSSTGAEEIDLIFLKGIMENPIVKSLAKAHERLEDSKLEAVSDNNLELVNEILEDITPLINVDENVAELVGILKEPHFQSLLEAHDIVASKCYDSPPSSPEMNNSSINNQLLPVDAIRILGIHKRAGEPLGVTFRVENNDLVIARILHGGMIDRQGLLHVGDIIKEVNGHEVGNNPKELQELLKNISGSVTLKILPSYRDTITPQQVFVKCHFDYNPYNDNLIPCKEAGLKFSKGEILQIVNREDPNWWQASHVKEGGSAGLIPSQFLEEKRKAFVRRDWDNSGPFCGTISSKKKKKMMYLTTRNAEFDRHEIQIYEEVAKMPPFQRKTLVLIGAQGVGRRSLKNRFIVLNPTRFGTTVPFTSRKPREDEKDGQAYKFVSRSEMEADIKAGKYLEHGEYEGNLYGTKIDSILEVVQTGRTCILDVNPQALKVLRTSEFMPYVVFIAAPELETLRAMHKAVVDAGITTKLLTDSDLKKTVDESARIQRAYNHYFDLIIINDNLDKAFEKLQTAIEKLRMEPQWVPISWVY
UniProt Q9NY12: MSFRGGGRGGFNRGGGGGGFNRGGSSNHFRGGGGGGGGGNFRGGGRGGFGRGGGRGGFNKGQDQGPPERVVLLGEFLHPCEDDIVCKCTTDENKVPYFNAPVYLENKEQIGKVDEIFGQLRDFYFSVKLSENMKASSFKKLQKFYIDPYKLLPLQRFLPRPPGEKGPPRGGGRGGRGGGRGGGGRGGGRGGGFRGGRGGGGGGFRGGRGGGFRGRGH
UniProt Q9NX63: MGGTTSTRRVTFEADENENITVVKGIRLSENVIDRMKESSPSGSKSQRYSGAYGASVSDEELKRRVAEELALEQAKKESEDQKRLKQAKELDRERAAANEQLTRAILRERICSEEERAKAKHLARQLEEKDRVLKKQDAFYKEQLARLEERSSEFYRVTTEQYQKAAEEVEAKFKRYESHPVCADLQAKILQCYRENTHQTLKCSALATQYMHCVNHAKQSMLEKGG

log2 ratio of iodoacetamide-alkyne labeling, inactive:
COPG2 C325 (UniProt Q9UBF2) 0.0417, GMIP C895 (UniProt Q9P107) 0.33, ASH2L C207 (UniProt Q9UBL3) -0.00185, MRPL39 C335 (UniProt Q9NYK5) 0.238, OGFR C330 (UniProt Q9NZT2) 0.44, TES C164 (UniProt Q9UGI8) -0.117, PNPO C72 (UniProt Q9NVS9) -0.341, ZNRD1 C78 (UniProt Q9P1U0) 0.249, MRPL39 C133 (UniProt Q9NYK5) 0.631, DDX56 C286 (UniProt Q9NY93) 0.0614, VPS18 C445 (UniProt Q9P253) -0.00352, IRAK4 C13 (UniProt Q9NWZ3) 0.0438, UniProt Q9P266_C1347 0.357, ABCF3 C102 (UniProt Q9NUQ8) 0.392, DNMT3B C651 (UniProt Q9UBC3) -0.0729, PHRF1 C797 (UniProt Q9P1Y6) -0.135, CPSF2 C82 (UniProt Q9P2I0) 0.425, ANKIB1 C662 (UniProt Q9P2G1) 0.225, TRMT1 C86 (UniProt Q9NXH9) 0.123, ANKFY1 C1159 (UniProt Q9P2R3) 0.144, IMP3 C107 (UniProt Q9NV31) 0.172, TES C361 (UniProt Q9UGI8) 0.0488, MTPAP C419 (UniProt Q9NVV4) 0.246, FANCI C1085 (UniProt Q9NVI1) -0.0435, STK39 C237 (UniProt Q9UEW8) 0.0232, LRWD1 C88 (UniProt Q9UFC0) -0.0924, KIAA1522 C575 (UniProt Q9P206) 0.0888, MRPS18A C108 (UniProt Q9NVS2) 0.0733, DDX19A C224 (UniProt Q9NUU7) 0.104, MPP6 C103 (UniProt Q9NZW5) 0.188, GNL3L C342 (UniProt Q9NVN8) 0.194, RRBP1 C1128 (UniProt Q9P2E9) 0.138, GAR1 C80 (UniProt Q9NY12) 0.0937, TMOD3 C150 (UniProt Q9NYL9) 0.135, ANKFY1 C675 (UniProt Q9P2R3) 0.054, CHCHD3 C112 (UniProt Q9NX63) 0.107, RCOR3 C233 (UniProt Q9P2K3) -0.0434, ALKBH4 C126 (UniProt Q9NXW9) -0.0741

Reference: the supplement of paper PMC11006884
